# Test results: PubChem BioAssay AID2685 (National Center for Advancing Translational Sciences (NCATS), 2010)
# The campaign covered roughly 320,000 compounds. About 2,100 (0.66%) were called active. The inconclusive results got no clear call from the source; some entries with a clear call stand among them for comparison. Calls come from the whole dose curve; as a rule, active = well fitted inhibition curve with a large enough effect in the signal ratio, with a control signal flat (not every such curve was filed as active); inconclusive = small, poorly fitted or top-dose-only effect, or effect the other way, or a change in a side signal; inactive = flat fitted curve, though single readings scatter; the % refers to the signal ratio. Where the call is inconclusive, the potency comes from a doubtful curve fit.
# Experiment: qHTS Assay for Lipid Storage Modulators in Drosophila S3 Cells
# Details: BODIPY lipid droplet fluorescence, 18-24 h, cells fed with added oleic acid; lipid storage change, negative = inhibition: at 46.1 µM (top of the series) unless noted
# How it was run: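 Drosophila S3 cells got compounds at several concentrations plus oleic acid (400 uM solution). Laser-scanning cytometry with 488 nm excitation read lipid droplets at 500-530 nm and cells at 575-640 nm. Percent activity was relative to 20 uM Triacsin C.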
# % is set by controls: 0 for no effect and ±100 for the full control effect; potency is the fitted concentration of half-maximal effect.
SMILES,"lipid storage change, negative = inhibition",Potency
COc1cc(NC(=O)C2CCCN(S(=O)(=O)c3cnc[nH]3)C2)cc(OC)c1 (configuration not stated),inconclusive: 13.8%,–
Cc1nc(-c2nnc(SCC(=O)Nc3ccc(C(F)(F)F)cc3)n2C)cs1,inconclusive: 40.8%,–
O=C(NNC(=O)c1cc2ccccc2oc1=O)c1ccccc1[N+](=O)[O-],inconclusive: -3.24%,–
COc1ccc(CC(=O)OCC(=O)Nc2c(C)n(C)n(-c3ccccc3)c2=O)cc1,inconclusive: 13.3%,–
CC1CCN(C(=O)COC(=O)c2n[nH]c(=O)c3ccccc23)CC1,–,"inconclusive: 0.58 µM [activator, full curve]"
CCNC(=S)N(CCCN(C)C)Cc1cc2cc3c(cc2[nH]c1=O)OCCO3,–,"inconclusive: 0.0046 µM [activator, full curve, poor fit]"
CC(C)(C)CC(=O)N1CCC(c2nc3c(nnn3Cc3c(F)cccc3Cl)c(=O)[nH]2)CC1,inconclusive: 10.8%,–
CC(C)(O)C#Cc1ccc(C(=O)N2CCN(c3ccc([N+](=O)[O-])cc3)CC2)cc1,–,"inconclusive: 1.3 µM [activator, full curve, poor fit]"
O=C(COC(=O)c1ccccc1OCC(=O)Nc1ccc(Br)cc1)Nc1ccccc1,–,"inconclusive: 0.0146 µM [activator, full curve, poor fit]"
O=C(NNC(=S)Nc1ccc(Cl)cc1Cl)c1cccnc1,–,"inconclusive: 29.1 µM [activator, single point]"
CCN(CC)CCNC(=O)CN1C(=O)COc2ccc(S(=O)(=O)N3CCOCC3)cc21,inconclusive: -20.7%,–
c1coc(CNc2nc3ccccc3s2)c1,inconclusive: 19.8%,–
O=C(NCCC(=O)N1CCN(S(=O)(=O)c2ccccc2)CC1)c1ccc(Br)cc1,inconclusive,–
C/C(=N\NC(=O)c1ccccc1Cl)c1ccccn1,–,"inconclusive: 0.058 µM [falling, partial curve]"
CCOC(=O)COc1ccc(/C=C/[N+](=O)[O-])c(OCC(=O)OCC)c1,–,"inconclusive: 20.6 µM [cytotoxic, partial curve]"
O=C1/C(=C\c2cccs2)Sc2ccc3ccccc3c21,–,active: 16.4 µM
Cc1ccc(-c2csc3nnc(SCC(=O)Nc4nsc(-c5ccccc5)n4)n23)cc1,–,"inconclusive: 0.517 µM [rising, partial curve]"
CN1CCC(OC(=O)C23CCC(C)(C(=O)O2)C3(C)C)CC1 (configuration not stated),inconclusive: -69.3%,–
CC1(C)CC(=O)C(CC(=O)Nc2ccc(S(N)(=O)=O)cc2)=C(O)C1,inconclusive: -14.4%,–
CNC(=O)/C(C#N)=C/c1c(N(Cc2ccccc2)Cc2ccccc2)nc2ccccn2c1=O,inconclusive: -14.7%,–
COCCn1c(SCc2cccc(F)c2)nc2cc(C(=O)OC)ccc2c1=O,–,"inconclusive: 7.31 µM [falling, partial curve]"
CCN(CC)S(=O)(=O)c1ccc(O)c(NS(=O)(=O)c2ccccc2F)c1,inconclusive: -14.1%,–
COc1cc(NC(=O)C2CC(c3c(F)cccc3Cl)=NO2)cc(OC)c1OC (configuration not stated),–,active: 11.6 µM
COc1ccccc1NS(=O)(=O)c1cccc(C(=O)OCc2nc3ccccc3s2)c1,inconclusive: 24.5%,–

SMILES,"lipid storage change, negative = inhibition",Potency
CN(C)C(=O)c1cn(-c2ccccc2)nc1-c1cc2ccccc2o1,–,"inconclusive: 29.1 µM [rising, single point]"
O=C(CNc1ccc(F)cc1)N/N=C/C1CC=CCC1 (configuration not stated),inconclusive: 43.8%,–
O=C(Cc1ccc(Cl)cc1)Oc1cccc2cccnc12,inconclusive: -13.9%,–
CCOC(=O)N1CCN(c2ccc(Cl)cc2)CC1,–,"inconclusive: 7.31 µM [activator, partial curve, poor fit]"
Cn1c(=O)[nH]c(=O)c2c1nc(Sc1nc3ccccc3s1)n2Cc1ccccc1,–,"inconclusive: 1.64 µM [activator, full curve]"
Cc1ccc(CNS(=O)(=O)c2cc(F)ccc2CN2C(=O)c3cccnc3C2=O)o1,–,"inconclusive: 0.58 µM [falling, single point]"
COC(=O)c1ccc(NC(=O)C2CCN(C(=O)c3cc(OC)c(OC)c(OC)c3)CC2)cc1,inconclusive: -17.9%,–
COc1ccc(NC(=O)C2CCCN(S(=O)(=O)c3c(C)n[nH]c3C)C2)c(OC)c1 (configuration not stated),inconclusive: -7.23%,–
CC(C)C(=O)OC1CCS(=O)(=O)c2sccc21 (configuration not stated),inconclusive: -17.3%,–
Cc1cc(NC(=O)CCN2C(=O)C3C4CCC(C4)C3C2=O)c(C)cc1Br (configuration not stated),–,"inconclusive: 29.1 µM [falling, single point]"
Cc1cccc(/C=C/c2nc3ccccc3c(=O)n2Cc2ccccc2)c1,–,"inconclusive: 29.1 µM [falling, single point]"
CCc1ccc(S(=O)(=O)NCc2cccnc2)cc1,inconclusive: 2.71%,–
CCOc1ccc(NC(=O)COC(=O)c2ncc(Cl)c(Cl)c2Cl)cc1,inconclusive: -11.7%,–
CCc1c(C)nc2ncnn2c1Nc1ccccc1C,inconclusive: 67%,–
CCCc1sc(N/N=C/c2ccccn2)nc1-c1ccc(F)cc1,–,"inconclusive: 25.9 µM [cytotoxic, single point]"
Cn1ncc(Br)c1C(=O)NC1CCCCC1,inconclusive: 27.7%,–
Cc1cc(C)nc(SCc2ccc(C(=O)N/N=C/c3ccccc3C(=O)O)cc2)n1,inconclusive: 45.1%,–
O=[N+]([O-])c1ccc(Cl)c(/C=N/N2CCN(Cc3ccc(Cl)cc3)CC2)c1,–,"inconclusive: 1.16 µM [activator, partial curve]"
O=C1CC(C(=O)Nc2ccc(Cl)cc2[N+](=O)[O-])C2(CCCCC2)O1 (configuration not stated),inconclusive: 87.6%,–
CCC(C)NC(=O)c1nn(C)c(=O)c2ccccc12 (configuration not stated),inconclusive: 35.1%,–
N#CCCN(NC1=NS(=O)(=O)c2ccccc21)C(=O)c1ccccc1Br,inconclusive: 12.6%,–
O=C([C@@H]1CCCN1C(=O)c1cccs1)N1CCN(S(=O)(=O)c2cccc(F)c2)CC1,inconclusive: 7.93%,–
CCOC(=O)c1cnn(C(=O)c2ccccc2)c1N,inconclusive: 33%,–

# Some of these compounds in order of formula weight, ascending.
SMILES,"lipid storage change, negative = inhibition",Potency
c1coc(CNc2nc3ccccc3s2)c1,inconclusive: 19.8%,–
CCc1c(C)nc2ncnn2c1Nc1ccccc1C,inconclusive: 67%,–
COc1ccc(NC(=O)C2CCCN(S(=O)(=O)c3c(C)n[nH]c3C)C2)c(OC)c1 (configuration not stated),inconclusive: -7.23%,–
COc1ccccc1NS(=O)(=O)c1cccc(C(=O)OCc2nc3ccccc3s2)c1,inconclusive: 24.5%,–
